From paper doi:10.1101/2023.02.23.529660
Like-named read-outs stand apart in the source and are kept apart here. These are yes or no findings as the source states them, for the method shown. Binding seen in cells or lysates may run through a third protein. Some entries that bind do so weakly or less than the wild type.

Protein sequences, listed by entry. Tags and fused reporters are not part of them. Lines headed by an entry give the natural chain unless they say otherwise; changes in a name come on top. Residues count along the entry.
UniProt P02751, residues 32-2477: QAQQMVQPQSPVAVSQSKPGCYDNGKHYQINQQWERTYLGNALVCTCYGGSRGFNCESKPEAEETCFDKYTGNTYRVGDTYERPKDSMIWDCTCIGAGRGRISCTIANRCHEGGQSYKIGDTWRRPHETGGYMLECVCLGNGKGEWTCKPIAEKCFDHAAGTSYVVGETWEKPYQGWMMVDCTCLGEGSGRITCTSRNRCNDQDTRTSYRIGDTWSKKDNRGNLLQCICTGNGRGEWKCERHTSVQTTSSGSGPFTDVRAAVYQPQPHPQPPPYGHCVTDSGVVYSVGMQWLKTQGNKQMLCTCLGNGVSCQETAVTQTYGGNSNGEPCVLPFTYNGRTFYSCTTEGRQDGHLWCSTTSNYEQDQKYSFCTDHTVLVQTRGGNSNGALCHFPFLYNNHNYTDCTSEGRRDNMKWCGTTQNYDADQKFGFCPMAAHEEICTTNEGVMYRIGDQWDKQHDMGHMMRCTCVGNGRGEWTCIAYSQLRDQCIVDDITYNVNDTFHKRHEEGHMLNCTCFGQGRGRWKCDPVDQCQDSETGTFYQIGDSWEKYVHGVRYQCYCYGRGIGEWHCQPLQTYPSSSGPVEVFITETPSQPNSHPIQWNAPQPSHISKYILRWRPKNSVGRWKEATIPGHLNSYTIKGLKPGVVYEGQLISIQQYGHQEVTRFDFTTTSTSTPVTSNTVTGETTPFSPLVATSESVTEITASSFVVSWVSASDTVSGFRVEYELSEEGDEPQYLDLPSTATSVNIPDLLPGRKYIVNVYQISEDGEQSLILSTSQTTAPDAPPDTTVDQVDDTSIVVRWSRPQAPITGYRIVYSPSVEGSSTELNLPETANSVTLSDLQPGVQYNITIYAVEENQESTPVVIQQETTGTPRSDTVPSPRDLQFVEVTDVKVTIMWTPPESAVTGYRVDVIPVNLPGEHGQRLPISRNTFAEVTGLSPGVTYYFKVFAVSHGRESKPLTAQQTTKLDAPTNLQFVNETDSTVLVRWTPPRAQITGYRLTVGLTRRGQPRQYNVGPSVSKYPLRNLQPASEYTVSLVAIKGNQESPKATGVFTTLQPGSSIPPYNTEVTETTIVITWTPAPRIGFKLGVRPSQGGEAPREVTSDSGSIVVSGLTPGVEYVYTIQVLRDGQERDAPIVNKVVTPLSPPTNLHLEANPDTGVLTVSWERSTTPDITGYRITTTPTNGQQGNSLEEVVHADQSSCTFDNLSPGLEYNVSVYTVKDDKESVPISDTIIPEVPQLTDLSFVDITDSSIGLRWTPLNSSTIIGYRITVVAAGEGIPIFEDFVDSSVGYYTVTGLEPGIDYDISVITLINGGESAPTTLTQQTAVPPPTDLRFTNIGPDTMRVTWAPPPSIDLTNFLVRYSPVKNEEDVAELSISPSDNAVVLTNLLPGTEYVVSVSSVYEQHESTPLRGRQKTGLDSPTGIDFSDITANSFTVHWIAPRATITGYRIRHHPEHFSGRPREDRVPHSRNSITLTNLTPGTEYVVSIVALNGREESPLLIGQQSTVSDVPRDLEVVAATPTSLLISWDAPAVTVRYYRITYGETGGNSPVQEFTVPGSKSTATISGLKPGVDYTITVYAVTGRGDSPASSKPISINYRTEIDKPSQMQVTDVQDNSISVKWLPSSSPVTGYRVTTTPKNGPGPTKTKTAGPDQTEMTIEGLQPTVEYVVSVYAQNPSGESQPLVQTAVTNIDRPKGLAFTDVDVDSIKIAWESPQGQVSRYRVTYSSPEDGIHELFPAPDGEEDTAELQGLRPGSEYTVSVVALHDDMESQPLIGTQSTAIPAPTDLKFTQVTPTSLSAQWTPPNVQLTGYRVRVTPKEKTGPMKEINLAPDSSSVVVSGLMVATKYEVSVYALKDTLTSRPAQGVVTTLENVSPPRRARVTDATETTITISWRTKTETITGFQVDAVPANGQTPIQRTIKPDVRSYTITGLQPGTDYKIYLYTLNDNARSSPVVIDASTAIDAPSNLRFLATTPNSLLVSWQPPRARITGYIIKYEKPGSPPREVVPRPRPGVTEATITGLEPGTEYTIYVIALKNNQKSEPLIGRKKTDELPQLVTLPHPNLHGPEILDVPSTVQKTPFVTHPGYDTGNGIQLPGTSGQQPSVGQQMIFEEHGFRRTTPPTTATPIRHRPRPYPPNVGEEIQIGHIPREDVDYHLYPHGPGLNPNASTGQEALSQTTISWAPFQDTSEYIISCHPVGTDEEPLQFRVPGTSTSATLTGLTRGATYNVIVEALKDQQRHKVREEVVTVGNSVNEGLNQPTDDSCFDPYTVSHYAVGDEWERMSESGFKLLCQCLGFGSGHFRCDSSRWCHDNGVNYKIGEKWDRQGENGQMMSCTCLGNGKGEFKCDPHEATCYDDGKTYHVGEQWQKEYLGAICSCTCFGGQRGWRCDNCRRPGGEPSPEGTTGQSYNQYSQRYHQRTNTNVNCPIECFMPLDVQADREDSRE
UniProt P01106: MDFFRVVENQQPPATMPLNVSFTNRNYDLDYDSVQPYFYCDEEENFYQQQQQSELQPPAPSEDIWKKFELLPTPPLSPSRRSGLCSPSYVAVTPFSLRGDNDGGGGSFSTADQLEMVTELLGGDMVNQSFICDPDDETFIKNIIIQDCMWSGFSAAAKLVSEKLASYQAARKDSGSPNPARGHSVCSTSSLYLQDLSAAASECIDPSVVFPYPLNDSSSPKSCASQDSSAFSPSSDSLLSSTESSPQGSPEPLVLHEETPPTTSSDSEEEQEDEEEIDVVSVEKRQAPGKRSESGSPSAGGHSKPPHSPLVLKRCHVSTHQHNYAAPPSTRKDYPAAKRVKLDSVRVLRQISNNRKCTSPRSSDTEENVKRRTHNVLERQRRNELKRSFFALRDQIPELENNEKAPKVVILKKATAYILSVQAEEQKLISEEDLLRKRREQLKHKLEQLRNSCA
UniProt P10275: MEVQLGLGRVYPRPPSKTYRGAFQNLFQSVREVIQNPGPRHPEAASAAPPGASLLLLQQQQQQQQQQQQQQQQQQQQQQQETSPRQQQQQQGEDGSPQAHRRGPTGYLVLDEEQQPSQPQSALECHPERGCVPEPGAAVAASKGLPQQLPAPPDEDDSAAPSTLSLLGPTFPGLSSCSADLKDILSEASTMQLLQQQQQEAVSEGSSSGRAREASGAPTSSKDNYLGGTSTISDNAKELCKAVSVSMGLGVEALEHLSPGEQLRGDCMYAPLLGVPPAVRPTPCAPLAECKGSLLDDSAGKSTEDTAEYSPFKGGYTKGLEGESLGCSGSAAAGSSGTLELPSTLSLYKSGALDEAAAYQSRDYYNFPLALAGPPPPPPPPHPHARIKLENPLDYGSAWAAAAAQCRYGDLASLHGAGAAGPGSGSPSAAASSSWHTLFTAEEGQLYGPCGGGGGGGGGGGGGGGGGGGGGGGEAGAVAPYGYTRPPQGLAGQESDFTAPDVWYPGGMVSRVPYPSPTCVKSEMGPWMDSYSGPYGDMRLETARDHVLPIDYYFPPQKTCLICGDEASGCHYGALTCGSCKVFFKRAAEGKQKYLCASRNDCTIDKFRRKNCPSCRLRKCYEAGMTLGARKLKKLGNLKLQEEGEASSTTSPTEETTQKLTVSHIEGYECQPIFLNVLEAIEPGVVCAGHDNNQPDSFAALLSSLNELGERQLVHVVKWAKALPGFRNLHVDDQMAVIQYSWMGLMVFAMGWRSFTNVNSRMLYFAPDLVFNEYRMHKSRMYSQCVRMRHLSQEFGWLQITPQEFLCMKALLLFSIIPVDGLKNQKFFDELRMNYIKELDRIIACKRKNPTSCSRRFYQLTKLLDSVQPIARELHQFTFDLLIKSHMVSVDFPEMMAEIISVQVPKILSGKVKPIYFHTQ

How the values were obtained:
Test in all cases: co-IP
[1] = target: fibronectin (FN1), endogenous (human (endogenous in RWPE1, LNCaP, C4-2B)) (UniProt P02751)
[2] = target: cMYC, endogenous (human (endogenous in RWPE1, LNCaP, C4-2B)) (UniProt P01106)
[3] = target: fibronectin (FN1), endogenous (human (endogenous in RWPE1, LNCaP, C4-2B)) (UniProt P02751); remark: listed apart in the source
[4] = target: androgen receptor (AR), endogenous, isoforms not told apart (human (endogenous in RWPE1, LNCaP, C4-2B)) (UniProt P10275)
[5] = target: androgen receptor (AR), endogenous, isoforms not told apart (human (endogenous in RWPE1, LNCaP, C4-2B)) (UniProt P10275); remark: listed apart in the source

Substance | binding [1] | binding [2] | binding [3] | binding [4] | binding [5]
androgen receptor (AR), endogenous, isoforms not told apart (from UniProt P10275 1-920) | binds |  |  |  | 
androgen receptor isoform AR-A (N-terminally truncated), endogenous (from UniProt P10275 188-920) |  | binds | no binding |  | 
androgen receptor isoform AR-B (full length), endogenous (from UniProt P10275 1-920) |  |  | binds |  | 
cMYC, endogenous (from UniProt P01106 1-454) | binds |  | binds |  | 
fibronectin (FN1), endogenous (from UniProt P02751 32-2477) |  | binds |  | binds weakly | binds
